# Measured data: PubChem BioAssay AID1259424 (University of Nebraska Medical Center, 2018)
# Aim: 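Seek colon cancer survival genes behaving like KSR1, using a six-gene signature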 (primary screen)
# Cells: human HCT116 colon cancer cells
# Reagent: siRNA pool against human genes, 50 nM
# Measurement: 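Log2 levels of six mRNAs (branched-DNA multiplex), adjusted by two reference genes and the non-targeting median, then scored against the average KSR1 knockdown pattern as Pearson r and euclidean distance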
# Direction: mean correlation with KSR1 profile and KSR1 correlation: higher = expression change more like KSR1 knockdown; mean distance from KSR1 profile: higher = expression change less like KSR1 knockdown
# Shown is one part, drawn at random, of about 14,000 deposited reagents. 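Higher correlation or smaller distance means closer resemblance to KSR1 loss; control wells, including KSR1 knockdowns, recur on many plates.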 Further read-outs or replicates are left out here. The record does not give: the time to read-out.
gene,mean correlation with KSR1 profile,mean distance from KSR1 profile,"KSR1 correlation, replicate 1"
GPR22,0.00221,2.53,0.0235
RNLS,-0.339,3,-0.102
LRRC37A,0.00665,2.6,-0.118
SLC71A3P,0.669,1.6,0.526
NUTF2,-0.523,2.08,-0.223
RASD1,0.704,1.38,0.715
MED17,-0.489,2.43,-0.29
ADCY7,0.103,4.3,0.0665
EVPL,0.325,2,0.314
RELCH,0.329,3.26,0.337
EZR,0.633,1.62,0.866
CLDN4,-0.704,1.72,-0.775
CYB561D2,0.0973,3.52,0.374
VPS37C,-0.203,2.1,0.185
HEMK2,0.486,1.65,0.285
NKD1,0.618,1.11,0.615
ARHGEF26,-0.0821,1.84,0.129
SAA4,-0.055,1.51,-0.0197
ATP5MJ,-0.234,1.44,-0.266
PSMD6,0.175,3.89,0.2

An excerpt from above, limited to “mean distance from KSR1 profile”.
MED17: 2.43
ADCY7: 4.3
EVPL: 2
RELCH: 3.26
EZR: 1.62
CLDN4: 1.72

Further results follow.
gene,mean correlation with KSR1 profile,mean distance from KSR1 profile,"KSR1 correlation, replicate 1"
KIAA1755,0.556,1.31,0.389
ACY3,-0.587,2.54,-0.431
FAM114A2,-0.124,2.11,0.191
GFAP,-0.27,4.4,-0.0554
SSU72,0.0668,1.41,-0.248
ZDHHC4,0.145,2.21,0.143
ITGB5,0.432,0.894,0.0552
RASSF9,0.199,1.83,0.166
PRB3,0.0576,1.45,0.0376
CRP,-0.39,2.59,-0.255
TNF,0.188,2.67,0.336
FBXO34,-0.607,6.67,-0.209
GEMIN6,0.384,1.95,0.491
GUCY2F,0.293,1.91,0.238
